# Results from the supplement of paper PMC8728848.
# The other results are listed elsewhere or left out.
# B1: MCL (Mus musculus), Q9Z2H6 (protein)
# chain: MWLEESQMKSKGTRHPQLIPCVFAVVSISFLSACFISTCLVTHHYFLRWTRGSVVKLSDYHTRVTCIREEPQPGATGGTWTCCPVSWRAFQSNCYFPLNDNQTWHESERNCSGMSSHLVTINTEAEQNFVTQLLDKRFSYFLGLADENVEGQWQWVDKTPFNPHTVFWEKGESNDFMEEDCVVLVHVHEKWVWNDFPCHFEVRRICKLPGITFNWKPSK
# How the values were obtained:
# Test in all cases: glycan array binding signal (z-score within array); higher = stronger binding
# Conditions in all cases: glycan notation: IUPAC condensed, linker removed
# Fuc(a1-2)Gal = target: Fuc(a1-2)Gal
# How it was run: (§1)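 From the Consortium for Functional Glycomics database, 3228 arrays were curated, keeping only those whose protein sequence was available. Binding is given as a within-array Z-score averaged across arrays sharing a protein sequence and across linkers. Negative Z-scores can be read as non-binding.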
# Fuc(a1-2)Gal(b1-3)GalNAc = target: Fuc(a1-2)Gal(b1-3)GalNAc
# How it was run: as §1
# [1] = target: Fuc(a1-2)Gal(b1-3)GalNAc(b1-3)Gal
# How it was run: as §1
# [2] = target: Fuc(a1-2)Gal(b1-3)GalNAc(b1-3)Gal(a1-4)Gal(b1-4)Glc
# How it was run: as §1
# [3] = target: Fuc(a1-2)Gal(b1-3)GalNAc(b1-4)[Neu5Ac(a2-3)]Gal(b1-4)Glc
# How it was run: as §1
# Fuc(a1-2)Gal(b1-3)GlcNAc = target: Fuc(a1-2)Gal(b1-3)GlcNAc
# How it was run: as §1
# [4] = target: Fuc(a1-2)Gal(b1-3)GlcNAc(b1-3)Gal(b1-4)Glc
# How it was run: as §1
# [5] = target: Fuc(a1-2)Gal(b1-3)[Fuc(a1-4)]GlcNAc
# How it was run: as §1
# Fuc(a1-2)Gal(b1-4)Glc = target: Fuc(a1-2)Gal(b1-4)Glc
# How it was run: as §1
# Fuc(a1-2)Gal(b1-4)Glc6S = target: Fuc(a1-2)Gal(b1-4)Glc6S
# How it was run: as §1
# Fuc(a1-2)Gal(b1-4)GlcNAc = target: Fuc(a1-2)Gal(b1-4)GlcNAc
# How it was run: as §1
# [6] = target: Fuc(a1-2)Gal(b1-4)GlcNAc(b1-3)Gal(b1-4)GlcNAc
# How it was run: as §1
# [7] = target: Fuc(a1-2)Gal(b1-4)GlcNAc(b1-3)Gal(b1-4)GlcNAc(b1-3)Gal(b1-4)GlcNAc
# How it was run: as §1
# [8] = target: Fuc(a1-2)Gal(b1-4)GlcNAc6S
# How it was run: as §1
# [9] = target: Fuc(a1-2)Gal(b1-4)[Fuc(a1-3)]GlcNAc
# How it was run: as §1
# [10] = target: Fuc(a1-2)Gal(b1-4)[Fuc(a1-3)]GlcNAc(b1-3)Gal(b1-4)[Fuc(a1-3)]GlcNAc
# How it was run: as §1
# [11] = target: Fuc(a1-2)Gal(b1-4)[Fuc(a1-3)]GlcNAc(b1-3)Gal(b1-4)[Fuc(a1-3)]GlcNAc(b1-3)Gal(b1-4)[Fuc(a1-3)]GlcNAc
# How it was run: as §1
# Fuc(a1-2)Gal6S(b1-4)Glc = target: Fuc(a1-2)Gal6S(b1-4)Glc
# How it was run: as §1
# [12] = target: Fuc(a1-2)Gal6S(b1-4)Glc6S
# How it was run: as §1
# [13] = target: Fuc(a1-2)Gal6S(b1-4)GlcNAc
# How it was run: as §1
# Fuc(a1-2)[Gal(a1-3)]Gal = target: Fuc(a1-2)[Gal(a1-3)]Gal
# How it was run: as §1
# [14] = target: Fuc(a1-2)[Gal(a1-3)]Gal(b1-3)GlcNAc
# How it was run: as §1
# [15] = target: Fuc(a1-2)[Gal(a1-3)]Gal(b1-4)Glc
# How it was run: as §1
# [16] = target: Fuc(a1-2)[Gal(a1-3)]Gal(b1-4)GlcNAc
# How it was run: as §1
# [17] = target: Fuc(a1-2)[Gal(a1-3)]Gal(b1-4)[Fuc(a1-3)]GlcNAc
# How it was run: as §1
# [18] = target: Fuc(a1-2)[Gal(a1-4)]Gal(b1-4)GlcNAc
# How it was run: as §1
# [19] = target: Fuc(a1-2)[GalNAc(a1-3)]Gal
# How it was run: as §1
# [20] = target: Fuc(a1-2)[GalNAc(a1-3)]Gal(b1-3)GlcNAc
# How it was run: as §1
# [21] = target: Fuc(a1-2)[GalNAc(a1-3)]Gal(b1-4)Glc
# How it was run: as §1
# [22] = target: Fuc(a1-2)[GalNAc(a1-3)]Gal(b1-4)GlcNAc
# How it was run: as §1
# [23] = target: Fuc(a1-2)[GalNAc(a1-3)]Gal(b1-4)[Fuc(a1-3)]GlcNAc
# How it was run: as §1
# [24] = target: Fuc(a1-2)[GalNAc(a1-4)]Gal(b1-4)GlcNAc
# How it was run: as §1
# [25] = target: Fuc(a1-2)[GalNAc(b1-3)]Gal
# How it was run: as §1
# Fuc(a1-3)GlcNAc = target: Fuc(a1-3)GlcNAc
# How it was run: as §1
# [26] = target: Fuc(a1-3)[Gal(b1-4)]Glc6S
# How it was run: as §1
# [27] = target: Fuc(a1-3)[Gal(b1-4)]GlcNAc
# How it was run: as §1
# [28] = target: Fuc(a1-3)[Gal(b1-4)]GlcNAc(b1-2)Man(a1-3)[Fuc(a1-3)[Gal(b1-4)]GlcNAc(b1-2)Man(a1-6)]Man(b1-4)GlcNAc(b1-4)GlcNAc
# How it was run: as §1
# [29] = target: Fuc(a1-3)[Gal(b1-4)]GlcNAc(b1-2)Man(a1-6)[Gal(b1-4)GlcNAc(b1-2)Man(a1-3)]Man(b1-4)GlcNAc(b1-4)GlcNAc
# How it was run: as §1
# [30] = target: Fuc(a1-3)[Gal(b1-4)]GlcNAc(b1-3)Gal(b1-3)[Fuc(a1-4)]GlcNAc
# How it was run: as §1
# [31] = target: Fuc(a1-3)[Gal(b1-4)]GlcNAc(b1-4)Gal(b1-4)[Fuc(a1-3)]GlcNAc
# How it was run: as §1
# [32] = target: Fuc(a1-3)[Gal(b1-4)]GlcNAc(b1-4)Gal(b1-4)[Fuc(a1-3)]GlcNAc(b1-4)Gal(b1-4)[Fuc(a1-3)]GlcNAc
# How it was run: as §1
# [33] = target: Fuc(a1-3)[Gal(b1-4)]GlcNAc6S
# How it was run: as §1
# [34] = target: Fuc(a1-3)[Gal3S(b1-4)]Glc6S
# How it was run: as §1
# [35] = target: Fuc(a1-3)[Gal3S(b1-4)]GlcNAc
# How it was run: as §1
# [36] = target: Fuc(a1-3)[Gal3S(b1-4)]GlcNAc6S
# How it was run: as §1
# [37] = target: Fuc(a1-3)[GalNAc(b1-4)]GlcNAc
# How it was run: as §1
# Fuc(a1-4)GlcNAc = target: Fuc(a1-4)GlcNAc
# How it was run: as §1
# Fuc(b1-3)GlcNAc = target: Fuc(b1-3)GlcNAc
# How it was run: as §1
# Gal(a1-2)Gal = target: Gal(a1-2)Gal
# How it was run: as §1
# Gal(a1-3)Gal = target: Gal(a1-3)Gal
# How it was run: as §1
# Gal(a1-3)Gal(b1-3)GlcNAc = target: Gal(a1-3)Gal(b1-3)GlcNAc
# How it was run: as §1
# Gal(a1-3)Gal(b1-4)Glc = target: Gal(a1-3)Gal(b1-4)Glc
# How it was run: as §1
# Gal(a1-3)Gal(b1-4)GlcNAc = target: Gal(a1-3)Gal(b1-4)GlcNAc
# How it was run: as §1
# [38] = target: Gal(a1-3)Gal(b1-4)[Fuc(a1-3)]GlcNAc
# How it was run: as §1
# Gal(a1-3)GalNAc = target: Gal(a1-3)GalNAc
# How it was run: as §1
# [39] = target: Gal(a1-3)[Gal(a1-4)]Gal(b1-4)GlcNAc
# How it was run: as §1
# Gal(a1-4)Gal(b1-4)Glc = target: Gal(a1-4)Gal(b1-4)Glc
# How it was run: as §1
# Gal(a1-4)Gal(b1-4)GlcNAc = target: Gal(a1-4)Gal(b1-4)GlcNAc
# How it was run: as §1
# Gal(a1-4)GlcNAc = target: Gal(a1-4)GlcNAc
# How it was run: as §1
# Gal(a1-6)Glc = target: Gal(a1-6)Glc
# How it was run: as §1
binder,measurement,setting,value
B1,glycan array binding signal (z-score),Fuc(a1-2)Gal,0.017
same,glycan array binding signal (z-score),Fuc(a1-2)Gal(b1-3)GalNAc,-0.088
same,glycan array binding signal (z-score),[1],0.423
same,glycan array binding signal (z-score),[2],0.494
same,glycan array binding signal (z-score),[3],0.406
same,glycan array binding signal (z-score),Fuc(a1-2)Gal(b1-3)GlcNAc,-0.16
same,glycan array binding signal (z-score),[4],0.432
same,glycan array binding signal (z-score),[5],-0.857
same,glycan array binding signal (z-score),Fuc(a1-2)Gal(b1-4)Glc,-0.61
same,glycan array binding signal (z-score),Fuc(a1-2)Gal(b1-4)Glc6S,0.132
same,glycan array binding signal (z-score),Fuc(a1-2)Gal(b1-4)GlcNAc,0.364
same,glycan array binding signal (z-score),[6],-0.7
same,glycan array binding signal (z-score),[7],-0.044
same,glycan array binding signal (z-score),[8],-0.355
same,glycan array binding signal (z-score),[9],-0.248
same,glycan array binding signal (z-score),[10],0.521
same,glycan array binding signal (z-score),[11],1.03
same,glycan array binding signal (z-score),Fuc(a1-2)Gal6S(b1-4)Glc,-0.628
same,glycan array binding signal (z-score),[12],0.194
same,glycan array binding signal (z-score),[13],-0.015
same,glycan array binding signal (z-score),Fuc(a1-2)[Gal(a1-3)]Gal,-0.163
same,glycan array binding signal (z-score),[14],-0.331
same,glycan array binding signal (z-score),[15],-0.321
same,glycan array binding signal (z-score),[16],-0.79
same,glycan array binding signal (z-score),[17],0.241
same,glycan array binding signal (z-score),[18],-0.106
same,glycan array binding signal (z-score),[19],-0.254
same,glycan array binding signal (z-score),[20],0.999
same,glycan array binding signal (z-score),[21],-0.309
same,glycan array binding signal (z-score),[22],-0.144
same,glycan array binding signal (z-score),[23],-0.692
same,glycan array binding signal (z-score),[24],-0.24
same,glycan array binding signal (z-score),[25],-0.276
same,glycan array binding signal (z-score),Fuc(a1-3)GlcNAc,0.207
same,glycan array binding signal (z-score),[26],0.025
same,glycan array binding signal (z-score),[27],-0.249
same,glycan array binding signal (z-score),[28],-0.322
same,glycan array binding signal (z-score),[29],5.26
same,glycan array binding signal (z-score),[30],0.601
same,glycan array binding signal (z-score),[31],-0.359
same,glycan array binding signal (z-score),[32],-0.559
same,glycan array binding signal (z-score),[33],-0.78
same,glycan array binding signal (z-score),[34],-0.456
same,glycan array binding signal (z-score),[35],0.253
same,glycan array binding signal (z-score),[36],0.053
same,glycan array binding signal (z-score),[37],-0.351
same,glycan array binding signal (z-score),Fuc(a1-4)GlcNAc,-0.113
same,glycan array binding signal (z-score),Fuc(b1-3)GlcNAc,-0.475
same,glycan array binding signal (z-score),Gal(a1-2)Gal,0.462
same,glycan array binding signal (z-score),Gal(a1-3)Gal,-0.18
same,glycan array binding signal (z-score),Gal(a1-3)Gal(b1-3)GlcNAc,2.63
same,glycan array binding signal (z-score),Gal(a1-3)Gal(b1-4)Glc,1.88
same,glycan array binding signal (z-score),Gal(a1-3)Gal(b1-4)GlcNAc,3.06
same,glycan array binding signal (z-score),[38],-0.415
same,glycan array binding signal (z-score),Gal(a1-3)GalNAc,0.01
same,glycan array binding signal (z-score),[39],0.605
same,glycan array binding signal (z-score),Gal(a1-4)Gal(b1-4)Glc,-0.218
same,glycan array binding signal (z-score),Gal(a1-4)Gal(b1-4)GlcNAc,-0.316
same,glycan array binding signal (z-score),Gal(a1-4)GlcNAc,0.384
same,glycan array binding signal (z-score),Gal(a1-6)Glc,0.889

# 2 records picked at random from those above, as already listed:
binder,measurement,setting,value
B1,glycan array binding signal (z-score),[39],0.605
same,glycan array binding signal (z-score),[20],0.999
